In article PMC8953689:
These are yes or no findings as the source states them, for the method shown. In cells and extracts the contact can be indirect. A yes stands for co-enrichment or nearness to the bait. Other partners may have been found. Where a sequence is shown, tags or fusion partners need not be part of it. Blank lines part the entries; values can stand above or below the molecule they belong to.

Sequences of proteins named here, by UniProt entry; tags and fusion partners are left off.
UniProt O00161: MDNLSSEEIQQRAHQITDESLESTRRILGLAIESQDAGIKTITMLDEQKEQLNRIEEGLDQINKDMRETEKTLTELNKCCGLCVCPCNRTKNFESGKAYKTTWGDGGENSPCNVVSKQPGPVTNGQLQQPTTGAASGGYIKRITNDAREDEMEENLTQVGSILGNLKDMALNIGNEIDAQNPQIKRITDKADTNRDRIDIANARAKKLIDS

Tests used:
[1] = target: T1, FLAG-tagged PLIN5(Δ461–463), stably expressed in AC16 cardiomyocytes (murine) (UniProt Q8BVZ1); assay: affinity purification with mass spectrometry; AC16 cardiomyocytes stably expressing FLAG-tagged PLIN5, PLIN5(Δ461–463) or β-Gal; FLAG IP in triplicates; copurifying proteins identified by diaPASEF MS, label-free quantification
T1 sequence: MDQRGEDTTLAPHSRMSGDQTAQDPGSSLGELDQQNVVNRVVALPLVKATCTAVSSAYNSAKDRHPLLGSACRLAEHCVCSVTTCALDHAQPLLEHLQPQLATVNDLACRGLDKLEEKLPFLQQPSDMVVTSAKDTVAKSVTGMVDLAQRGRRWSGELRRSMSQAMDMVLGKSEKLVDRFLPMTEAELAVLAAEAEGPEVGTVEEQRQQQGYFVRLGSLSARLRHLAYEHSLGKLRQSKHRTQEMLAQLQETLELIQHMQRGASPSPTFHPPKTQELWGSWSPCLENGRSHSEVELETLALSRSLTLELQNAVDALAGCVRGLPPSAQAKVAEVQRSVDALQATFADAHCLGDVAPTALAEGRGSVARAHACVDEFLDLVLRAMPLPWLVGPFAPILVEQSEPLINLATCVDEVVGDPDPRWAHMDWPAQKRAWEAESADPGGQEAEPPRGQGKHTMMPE

[2] = target: T2, FLAG-tagged PLIN5 (murine perilipin 5, wild type), stably expressed in AC16 cardiomyocytes (murine) (UniProt Q8BVZ1); assay: as above
T2 sequence: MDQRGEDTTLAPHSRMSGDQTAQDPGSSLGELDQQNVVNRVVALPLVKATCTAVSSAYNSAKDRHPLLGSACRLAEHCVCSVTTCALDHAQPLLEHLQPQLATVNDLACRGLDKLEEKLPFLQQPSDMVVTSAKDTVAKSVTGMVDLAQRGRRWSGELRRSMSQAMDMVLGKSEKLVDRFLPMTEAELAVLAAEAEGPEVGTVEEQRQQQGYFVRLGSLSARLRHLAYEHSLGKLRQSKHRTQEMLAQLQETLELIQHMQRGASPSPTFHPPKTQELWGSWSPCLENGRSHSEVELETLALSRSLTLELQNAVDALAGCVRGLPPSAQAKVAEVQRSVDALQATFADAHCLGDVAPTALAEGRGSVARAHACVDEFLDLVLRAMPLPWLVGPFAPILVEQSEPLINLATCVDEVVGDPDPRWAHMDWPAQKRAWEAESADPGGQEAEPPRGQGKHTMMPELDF

binding [1]: binds
binding [2]: binds
Molecule: synaptosomal-associated protein 23 (from UniProt O00161 1-211)

binding [1]: binds
binding [2]: binds
B1: adipose triglyceride lipase (ATGL), endogenous in AC16 cells (enzyme, UniProt Q96AD5 1-504)
chain: MFPREKTWNISFAGCGFLGVYYVGVASCLREHAPFLVANATHIYGASAGALTATALVTGVCLGEAGAKFIEVSKEARKRFLGPLHPSFNLVKIIRSFLLKVLPADSHEHASGRLGISLTRVSDGENVIISHFNSKDELIQANVCSGFIPVYCGLIPPSLQGVRYVDGGISDNLPLYELKNTITVSPFSGESDICPQDSSTNIHELRVTNTSIQFNLRNLYRLSKALFPPEPLVLREMCKQGYRDGLRFLQRNGLLNRPNPLLALPPARPHGPEDKDQAVESAQAEDYSQLPGEDHILEHLPARLNEALLEACVEPTDLLTTLSNMLPVRLATAMMVPYTLPLESALSFTIRLLEWLPDVPEDIRWMKEQTGSICQYLVMRAKRKLGRHLPSRLPEQVELRRVQSLPSVPLSCAAYREALPGWMRNNLSLGDALAKWEECQRQLLLGLFCTNVAFPPEALRMRAPADPAPAPADPASPQHQLAGPAPLLSTPAPEARPVIGALGL
